Patent US10035989B2, “Method for producing polyunsaturated fatty acids in transgenic plants” (BASF Plant Science GmbH, priority 2004, dated 2018)
Some results were stated once for a whole list of compounds, not compound by compound.

Tested on: OmElo3 elongase
Test: Functional characterization of OmELO3 in yeast (fatty acid feeding, GLC of FAMEs)
Format: cell-based, Oncorhynchus mykiss
Details: best substrates fed to yeast expressing OmElo3

SMILES: CC/C=C\C/C=C\C/C=C\C/C=C\CCCCC(=O)O [18:4^Δ6,9,12,15, stearidonic acid]
- elongation: up to 66%

SMILES: CC/C=C\C/C=C\C/C=C\C/C=C\C/C=C\CCCC(=O)O [20:5^Δ5,8,11,14,17, eicosapentaenoic acid]
- elongation: up to 66%
